Results of single-concentration screens

The values are deposited in ChEMBL (CHEMBL3988442, “University of Dundee, Small-Polar-MMV Screening Library” (2021)).

The filed quantity is “Percent Effect” (%).
The record does not define 0% and 100%; most values in the screen are far below 50% and negative numbers occur (in some assays of this library far below -100).
Compounds were drawn at random from those tested, without regard to their results.

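Whole-cell growth test on Mycobacterium tuberculosis, read after 3 days in glucose-containing 7H9 medium; the read-out is not stated. Tested at 500 µM. The record gives no direction; compounds that gave an IC50 in retests scored well above the rest, so higher reads as more growth inhibition. About 18,000 compounds were tested under these conditions; 7.9% (about 1,400) showed 50% or more at least once.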

Compound | effect
COc1ccc2[nH]c(CNC(=O)CNC(N)=O)cc2c1 | 21.54
NC(=O)Cc1ccncc1 | 4.693
N[C@H]1CN(CC(=O)N2CCOCC2)C[C@@H]1C1CC1 | -7.24
CN(CC(N)=O)C(=O)c1cc(Cl)c2c(c1)OCO2 | -9.512
CCCN(C)S(=O)(=O)NC(C)c1ccc(OC)c(F)c1 (centres unmarked) | 60.26
CCC(C)(CCO)NC(=O)c1ccc[nH]1 (centres unmarked) | 9.067
Nc1c[nH]nc1-c1ccccn1 | 16.81
CN(C)c1ccc(C(=O)NCCc2c[nH]cn2)cn1 | 8.683
NCc1ccncc1OCc1ccccc1 | 55.5
CCOC(=O)C(C)(C)n1cc(N)cn1 | 32.95
COc1ccc(NC(=O)NC2CCNC2=O)c(C)c1 (centres unmarked) | 0.7326
NCCC1C(=O)Nc2ccccc21 (centres unmarked) | 20.91
CC(=O)c1cn2c(n1)CCCC2 | 1.015
CNC(=O)NC(=O)CN1CCCCC1CNS(C)(=O)=O (centres unmarked) | 5.098
CCN(C(=O)Cc1csc(N2CCCC2=O)n1)C1CC1 | 17.61
CCC(NC(=O)c1cc(C)[nH]c(=O)c1)c1nc(C)c[nH]1 (centres unmarked) | -2.606
NC(=O)Cc1ccccc1NC(=O)OCC(F)(F)F | 30.66
CCc1nccn1CCNC(=O)CN1CCCC(O)C1 (centres unmarked) | 1.248
OCCOc1ccccc1CN1C[C@H]2CC[C@@H](C1)[C@H]2O | 14.22
Cc1ccnc(NC(=O)[C@@H]2CCCO2)n1 | 2.577
N#Cc1cc(Br)ccc1N1CCN(C(=O)CO)CC1 | 38.99
Cc1nnc(SCC(=O)NCC2CC2)s1 | 19.42
CC(CNc1cccc(F)c1C#N)S(N)(=O)=O (centres unmarked) | 12.6
COCC1(C(=O)N2CCCC(CC(N)=O)C2)CCC1 (centres unmarked) | -0.1719
N#Cc1cncc(Br)c1 | 4.315
CCn1nc(C)cc1C(=O)N1CCNC(=O)C1(C)C | -1.777
Cc1ncc(C(=O)NCc2ccnn2C)c(O)c1Br | -6.104
Cc1ccc(-c2noc([C@H]3CCCN3)n2)nn1 | 4.725
O=C(Nc1cnc(O)nc1O)c1ccccc1Br | 26.27
O=C(NCC1CCCCN1)Nc1ccccc1 (centres unmarked) | -1.275
N[C@H]1CC[C@H](Nc2ccccn2)CC1 | -1.122
CC(=O)N(C)C1CCN(Cc2cccc(F)c2)CC1 | 5.571
COc1ccc(S(=O)(=O)Nc2cccc(CN)c2)cc1 | 75.24
COC1CCN(CC(=O)N2CCCCC2)CC1 | 11.54
Cc1cc(C2CCCCN2)no1 (centres unmarked) | -2.145
COc1ccc(Cl)cc1CNCCSc1nnnn1C | 42.85
Cc1csc(N2CCCN(C(=O)c3cnsn3)CC2)n1 | 51.92
Cc1ccc(CNCCN2CCOCC2)s1 | 5.013
CNc1cc(C#N)c2ccccc2n1 | 6.479
CSc1ncccc1C(=O)N1CCCC(C)(C#N)C1 (centres unmarked) | 8.824
CS(=O)(=O)NC1CCCN(c2nc3ccccc3[nH]2)C1 (centres unmarked) | 1.095
Cc1cc(NC2CCC(=O)N(C)C2)nc(C)n1 (centres unmarked) | -11.83
COc1cccc(C(=O)Nc2cnc(O)nc2O)c1 | 12.6
Cc1cccc(C)c1OC1CN(C(=O)CS(C)(=O)=O)C1 | 30.81
Cn1c(=O)c2nc(N3CCCCC3)[nH]c2n(C)c1=O | -7.708
Cn1ccnc1CN(CCO)CC1CC1 | 13.75
CCc1cccc(S(=O)(=O)N2CC[C@H](N)C2)c1 | 59.04
Cc1cc(N2CCNC(=O)C2)ccc1CN | 11.97
NC(=O)N(Cc1cccs1)CC1CCCO1 (centres unmarked) | 7.295
Cc1cc(CN)nn1C | 10.26
CN(C)C1CCN(S(=O)(=O)c2ncn(C)c2Cl)CC1 | -4.438
CCc1cccc(NC(=O)C2CCCN(C(C)=O)C2)c1 (centres unmarked) | 39.52
CSCc1ccc(N2CCC(CNC(C)=O)CC2)nc1 | 49.84
CC(C)C(N)c1nncn1C (centres unmarked) | -1.405
O=C(c1cscn1)N1CCN(c2ccc(Cl)cn2)CC1 | 81.54
CCc1nc(C)ncc1C(=O)N1CCSCC1 | -0.9012

The first 7 entries again:

Compound	effect
COc1ccc2[nH]c(CNC(=O)CNC(N)=O)cc2c1	21.54
NC(=O)Cc1ccncc1	4.693
N[C@H]1CN(CC(=O)N2CCOCC2)C[C@@H]1C1CC1	-7.24
CN(CC(N)=O)C(=O)c1cc(Cl)c2c(c1)OCO2	-9.512
CCCN(C)S(=O)(=O)NC(C)c1ccc(OC)c(F)c1 (centres unmarked)	60.26
CCC(C)(CCO)NC(=O)c1ccc[nH]1 (centres unmarked)	9.067
Nc1c[nH]nc1-c1ccccn1	16.81